Measured values: publication PMC4980808

Target: T1, ZIP6, mouse (bait of the affinity capture) (mouse (endogenous in NMuMG)) (UniProt Q8C145)
T1 sequence: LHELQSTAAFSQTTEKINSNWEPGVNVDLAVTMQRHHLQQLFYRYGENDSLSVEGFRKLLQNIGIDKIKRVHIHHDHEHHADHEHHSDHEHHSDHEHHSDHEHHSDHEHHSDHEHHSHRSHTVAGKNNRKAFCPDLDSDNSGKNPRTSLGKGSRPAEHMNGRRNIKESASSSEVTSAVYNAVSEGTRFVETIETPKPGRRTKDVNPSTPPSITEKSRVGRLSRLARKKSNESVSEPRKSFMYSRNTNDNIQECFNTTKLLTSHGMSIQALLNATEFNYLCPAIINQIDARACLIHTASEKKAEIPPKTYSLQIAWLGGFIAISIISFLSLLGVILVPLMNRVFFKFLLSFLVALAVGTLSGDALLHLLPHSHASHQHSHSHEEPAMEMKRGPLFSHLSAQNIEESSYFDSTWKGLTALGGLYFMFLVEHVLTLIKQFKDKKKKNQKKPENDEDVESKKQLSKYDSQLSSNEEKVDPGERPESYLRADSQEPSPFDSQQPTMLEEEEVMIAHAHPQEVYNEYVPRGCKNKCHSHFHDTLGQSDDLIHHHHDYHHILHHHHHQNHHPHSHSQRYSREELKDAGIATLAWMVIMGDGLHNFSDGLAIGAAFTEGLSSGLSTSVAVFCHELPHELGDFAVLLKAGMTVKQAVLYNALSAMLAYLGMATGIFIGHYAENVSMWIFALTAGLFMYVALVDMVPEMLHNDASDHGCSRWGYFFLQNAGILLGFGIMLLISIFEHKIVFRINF
Experiment: affinity purification with mass spectrometry; wild-type or ZIP6 knockout NMuMG cells cross-linked in vivo with 1% formaldehyde, lysed in 1% NP-40 buffer; capture on anti-ZIP6 antibodies on Protein A agarose; six-plex TMT quantification

binding: binds
B1: ZIP10, mouse (protein, UniProt Q6P5F6 26-833)
chain: HEDHDHGPEELHRHHRGMTESESSKFSVQDAENEKKYYIEKLFDRYGENGRLSFFGLEKLLTNLGLGEIKVVEINHEDLGHDHVSHLDILAVQEGKHFHSHTHQHFHNHLNAENHTTTSVTSKRNHKCDPEKEAAELPIKADDKHLHDRNHRFHHRHRLHHHLDHNTTRHVHNDSVAHSEHGEPGHSPSPETNKTQEQSEVKSVKVRRKEKGKRKKENSEVNTPGFLPNHDHSEQYEHNRVHKLDRVHSPGHPHAHLPEHSGHELGHGHQELDPDNEGELRHTRKREAPHVRKSAIYSTPSHKDQSEDDRQHECLNVTQLLKHFGLGPNSPISPDLFTYLCPALLYQIDSRLCIEHFDKLLVEDLNKDKTLVPEDKTNIGASAWICGIISITVISLLSLLGVILVPIINQGCFKFLLTFLVALAVGTMSGDALLHLLPHSQGGHDHSHQHTHGHGHSHGHESKEFLEEYDAVLKGLVALGGIYLLFIIEHCIRMFKHYKQQRGKQKWFMKQSTEESTIGRKLSDHKLNSTPDADWLQLKPLAGTDDSVVSEDRLNETELTDLEAQQESPPKNYLGVEEEKIMDHSHSDGLHTIHEHEVHVTSHNHHDEDKAVLRKHSHQWHHRHAHHSHGPCHSGSDLKETGIANIAWMVIMGDGIHNFSDGLAIGAAFSAGLTGGISTSIAVFCHELPHELGDFAVLLKAGMTVKQAIVYNLLSAMMAYIGMLIGTAVGQYANNITLWIFAITAGMFLYVALVDMLPEMLHGDGDHEEHGFCPVGQFILQNLGLLFGFAIMLVIALYEDKIVFDIQF

Results are given in words; binding and its absence hold for the method and conditions named. In cells and extracts the contact can be indirect. These calls come from enrichment with a bait or labelling near it, and not all partners need be listed.
